Results as given in publication PMC12374588.
These are yes or no findings as the source states them, for the method shown. For part of these data: In cells and extracts the contact can be indirect. Some results given as binding are weak or reduced against the parent protein; the word gives no strength. For part of these data: Tags and fused reporters may be left off the sequences shown. Each block holds one molecule with its values, some of them ahead of it.

Amino acid sequences for entries named in this document (tags omitted).
UniProt P50750: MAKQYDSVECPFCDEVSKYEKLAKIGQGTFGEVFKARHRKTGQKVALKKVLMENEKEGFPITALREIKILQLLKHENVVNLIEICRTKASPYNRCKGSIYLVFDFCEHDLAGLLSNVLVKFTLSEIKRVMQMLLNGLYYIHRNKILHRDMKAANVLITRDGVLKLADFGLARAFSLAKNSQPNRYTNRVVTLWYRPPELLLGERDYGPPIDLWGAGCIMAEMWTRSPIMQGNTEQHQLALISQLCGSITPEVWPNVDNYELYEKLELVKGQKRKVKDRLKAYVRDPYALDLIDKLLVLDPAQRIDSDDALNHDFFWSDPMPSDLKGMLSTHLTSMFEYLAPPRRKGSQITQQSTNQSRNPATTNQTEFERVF

What was measured:
[1] = biological target: T1, CREPT, endogenous (human (endogenous in SK-LU-1, H441, HEK-293T)) (UniProt Q9NQG5); assay: co-IP; endogenous proteins in SK-LU-1 and H441 lysates; also after mitogen stimulation or ERK inhibition
T1 sequence: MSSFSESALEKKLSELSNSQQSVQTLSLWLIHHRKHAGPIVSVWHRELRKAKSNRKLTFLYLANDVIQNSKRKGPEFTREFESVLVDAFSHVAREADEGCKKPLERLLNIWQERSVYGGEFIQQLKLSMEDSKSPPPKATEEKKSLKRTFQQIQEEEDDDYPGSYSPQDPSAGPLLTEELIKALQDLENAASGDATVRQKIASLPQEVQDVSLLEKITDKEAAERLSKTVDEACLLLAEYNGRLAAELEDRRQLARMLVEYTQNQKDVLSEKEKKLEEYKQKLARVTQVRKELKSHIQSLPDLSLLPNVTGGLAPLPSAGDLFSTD

[2] = biological target: T2, HA-CREPT (cell cycle-related and expression elevated protein in tumor) (UniProt Q9NQG5); assay: co-IP; in vitro binding assay: purified proteins incubated together at 4 °C overnight, then immunoprecipitated with anti-HA or anti-CREPT antibody; both purified
T2 sequence: T1 sequence

[3] = biological target: T3, CREPT purified from E. coli (UniProt Q9NQG5); assay: as above
T3 sequence: T1 sequence

[4] = biological target: Flag-CDK9 (cyclin-dependent kinase 9) (UniProt P50750); assay: co-IP; Myc-tagged CREPT, CID or CCT with Flag-CDK9; blots with anti-Myc (9E10) and anti-Flag (M2); cells not given
[5] = biological target: Flag-CDK9 (cyclin-dependent kinase 9) (UniProt P50750); assay: co-IP; HEK-293T co-transfected with HA-CREPT and Flag-CDK9; IP with anti-Flag (M2), blot anti-HA and anti-FLAG

Molecule: CDK9, endogenous (from UniProt P50750 1-372) (enzyme)
- binding [1]: binds

B1: Myc-tagged CID domain of CREPT (domain or fragment, UniProt Q9NQG5 2-133)
chain: SSFSESALEKKLSELSNSQQSVQTLSLWLIHHRKHAGPIVSVWHRELRKAKSNRKLTFLYLANDVIQNSKRKGPEFTREFESVLVDAFSHVAREADEGCKKPLERLLNIWQERSVYGGEFIQQLKLSMEDSK
- binding [4]: binds

B3: Myc-tagged CREPT (protein, UniProt Q9NQG5 1-326)
chain: T1 sequence
- binding [4]: binds

Other lines, results leading:

- binding [2]: binds
- binding [3]: binds
Molecule: Flag-CDK9 (cyclin-dependent kinase 9) (from UniProt P50750 1-372) (enzyme)

- binding [5]: binds
B2: HA-CREPT (cell cycle-related and expression elevated protein in tumor) (protein, UniProt Q9NQG5 1-326)
chain: T1 sequence
